Test results reported in patent US11872260B2, “Mint essential oils inhibit HRASQ61L mutant keratinocyte activity and prevent skin carcinogenesis” (ACADEMIA SINICA, priority 2018, dated 2024).
For at least one compound, name, drawing or mass did not settle the structure.

Tests used:
[1] = test system: MAPK signaling (p-MEK, p-ERK, MEK, ERK) in PDV cells; experiment: Western blot of MAPK signaling related proteins (paradoxical MAPK activation); format: cell-based, mouse
[2] = test system: PDV cells; experiment: Colony-formation assay; format: cell-based, mouse; conditions: for colony formation ability: without PLX4032 co-treatment, 6 days, PLX4032 and AZD6244 0.5 μM
[3] = test system: PDV cells; experiment: Cell-cycle analysis, PI flow cytometry; format: cell-based, mouse; conditions: L+C 60 μg/mL; PLX4032 0.5 μM; EOs 12-24 h
[4] = test system: PDV cells; experiment: Transwell cell invasion assay; format: cell-based, mouse; conditions: absence of PLX4032, 24 h; PLX4032 alone 2 μM
[5] = test system: p-ERK in papilloma tissue; experiment: Immunohistochemistry of p-ERK in papillomas; format: in vivo, FVB mice; conditions: RAS gene mutated tissue
[6] = test system: PDV cells; experiment: Apoptosis assay, Annexin V/PI flow cytometry; format: cell-based, mouse; conditions: PLX4032 0.5 μM; L+C 40-60 μg/mL with or without PLX4032
[7] = test system: PDV cells; experiment: Wound healing (migration) assay; format: cell-based, mouse; conditions: 24 h; KWM-EO 50 μg/mL, LM-EO 50 μg/mL, L+C 40 μg/mL; PLX4032 alone 2 μM

Structure (SMILES)	p-MEK and p-ERK protein expression in PLX4032-stimulated PDV cells ([1]; 0.5 μM PLX4032, EOs 75 μg/mL, L+C 60 μg/mL, AZD6244 0.5 μM)	colony formation ability of PDV cells stimulated by PLX4032 ([2]; co-treated with 0.5 μM PLX4032, 6 days)	colony formation ability [2]	cell-cycle DNA distribution [3]	p-MEK and p-ERK protein expression, PLX4032 alone ([1]; 0.5 μM, 6-24 h)	invasive ability (invaded cells) [4]	activation of p-ERK, effect of PLX4032 injection [5]	apoptosis induction [6]	cell migratory ability [7]
Cn1cnc2c(F)c(Nc3ccc(Br)cc3Cl)c(C(=O)NOCCO)cc21 [AZD6244, Selumetinib]	reversed the up-regulation of p-ERK	decreased clonogenic formation ability	decreased clonogenic formation ability						
CCCS(=O)(=O)Nc1ccc(F)c(C(=O)c2c[nH]c3ncc(-c4ccc(Cl)cc4)cc23)c1F [PLX4032, vemurafenib]			significantly promoted PDV cell colony formation	did not affect cell-cycle DNAs	promoted p-MEK and p-ERK protein expression	promoted the invasive ability	enhanced the activation of p-ERK	did not cause apoptosis	strongly promoted cell migration
